Experimental data as given in article PMC6039525.
These are yes or no findings as the source states them, for the method shown. In cells and extracts the contact can be indirect. Some binding calls cover weakened binding; strength is not graded here.

Amino acid sequences for entries named in this document (tags omitted).
UniProt P27782: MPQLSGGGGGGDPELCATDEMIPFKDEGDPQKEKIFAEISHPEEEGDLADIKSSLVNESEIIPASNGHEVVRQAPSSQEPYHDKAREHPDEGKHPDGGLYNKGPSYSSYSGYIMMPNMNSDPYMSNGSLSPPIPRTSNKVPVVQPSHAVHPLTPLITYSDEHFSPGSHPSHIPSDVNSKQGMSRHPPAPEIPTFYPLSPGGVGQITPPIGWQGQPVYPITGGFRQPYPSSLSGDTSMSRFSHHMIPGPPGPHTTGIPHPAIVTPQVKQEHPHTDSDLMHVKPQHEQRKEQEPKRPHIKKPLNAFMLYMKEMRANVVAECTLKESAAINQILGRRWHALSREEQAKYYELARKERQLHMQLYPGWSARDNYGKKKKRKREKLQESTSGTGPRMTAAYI
UniProt Q9EPK5: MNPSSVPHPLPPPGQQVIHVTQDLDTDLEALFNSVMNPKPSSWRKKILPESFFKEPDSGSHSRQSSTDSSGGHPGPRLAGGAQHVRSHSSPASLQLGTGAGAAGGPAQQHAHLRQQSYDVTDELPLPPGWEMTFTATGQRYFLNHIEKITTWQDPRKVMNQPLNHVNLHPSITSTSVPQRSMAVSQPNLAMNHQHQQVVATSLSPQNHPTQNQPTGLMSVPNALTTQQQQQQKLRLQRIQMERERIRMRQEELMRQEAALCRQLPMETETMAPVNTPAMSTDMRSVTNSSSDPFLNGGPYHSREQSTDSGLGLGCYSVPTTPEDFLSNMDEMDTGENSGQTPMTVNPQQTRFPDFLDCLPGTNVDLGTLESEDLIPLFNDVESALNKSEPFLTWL

What was measured:
[1] = biological target: endogenous LEF1 of primary osteoblasts (mouse (endogenous in primary osteoblasts)) (UniProt P27782); assay: co-IP; lysates of primary osteoblasts (endogenous proteins) immunoprecipitated with control IgG or anti-LEF1 antibody; immunoblotting with anti-TAZ antibody
[2] = biological target: lymphoid enhancer-binding factor 1 (LEF1) (UniProt P27782); assay: co-IP; 293FT cells transfected with expression vectors, incubated 3 days, lysed (20 mM HEPES pH 7.4, 150 mM NaCl, 1% Triton X-100); immunoprecipitation with anti-LEF1 antibody, Dynabeads Protein G or A; immunoblotting with anti-TAZ or anti-Flag

| Substance | binding [1] | binding [2] |
| --- | --- | --- |
| endogenous TAZ of primary osteoblasts (from UniProt Q9EPK5 1-395) | binds | – |
| transcriptional co-activator with PDZ-binding motif (TAZ) (from UniProt Q9EPK5 1-395) | – | binds |
